{"source": "paper PMC12866788", "about": "“Alternative Pathway for Methyl Supply through the Coupling of SHMT1 and PEMT to Maintain Astrocytic Homeostasis in Parkinson's Disease” (Advanced Science, 2025)", "key": {"SHMT1, overexpressed": {"target": "T1, SHMT1, overexpressed (UniProt P50431)", "T1 sequence": "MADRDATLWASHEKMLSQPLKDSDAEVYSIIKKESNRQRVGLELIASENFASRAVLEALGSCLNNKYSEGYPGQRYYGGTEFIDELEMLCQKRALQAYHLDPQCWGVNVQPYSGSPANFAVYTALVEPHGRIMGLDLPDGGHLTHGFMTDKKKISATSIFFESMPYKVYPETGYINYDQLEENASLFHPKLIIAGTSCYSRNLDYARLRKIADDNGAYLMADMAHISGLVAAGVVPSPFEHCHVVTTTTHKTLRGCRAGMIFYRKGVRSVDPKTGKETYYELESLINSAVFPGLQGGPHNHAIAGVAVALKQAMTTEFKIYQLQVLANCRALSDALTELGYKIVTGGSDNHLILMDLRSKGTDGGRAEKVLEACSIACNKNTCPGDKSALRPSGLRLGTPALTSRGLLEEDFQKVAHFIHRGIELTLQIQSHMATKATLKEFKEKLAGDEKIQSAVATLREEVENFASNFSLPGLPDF", "experiment": "co-IP; cell lysates (cells not named) in NP-40 lysis buffer with protease inhibitors; 1 mg total protein with anti-PEMT or anti-SHMT1 antibody overnight at 4 °C, Protein A/G agarose beads, immunoblotting; also cells overexpressing SHMT1 in the MPP+ model (PEMT in the washing solution) and cells pretreated with Isoorientin (10 µM) and MPP+ (500 µM)"}, "[1]": {"target": "T2, Serine Hydroxymethyltransferase 1 (SHMT1) (UniProt P50431)", "T2 sequence": "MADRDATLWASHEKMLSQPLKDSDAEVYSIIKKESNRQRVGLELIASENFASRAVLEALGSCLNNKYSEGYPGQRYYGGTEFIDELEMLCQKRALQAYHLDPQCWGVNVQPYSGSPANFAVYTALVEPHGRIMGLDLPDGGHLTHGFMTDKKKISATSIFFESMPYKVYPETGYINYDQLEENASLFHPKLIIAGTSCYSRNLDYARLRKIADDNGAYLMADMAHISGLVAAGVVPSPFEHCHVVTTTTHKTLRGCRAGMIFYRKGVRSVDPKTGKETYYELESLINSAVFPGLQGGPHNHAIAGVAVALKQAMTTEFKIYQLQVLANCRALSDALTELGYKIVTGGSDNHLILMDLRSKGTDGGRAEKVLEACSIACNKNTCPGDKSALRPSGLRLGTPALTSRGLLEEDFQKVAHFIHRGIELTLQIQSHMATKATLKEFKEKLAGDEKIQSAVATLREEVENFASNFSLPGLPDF", "experiment": "co-IP; cell lysates (cells not named) in NP-40 lysis buffer with protease inhibitors; 1 mg total protein with anti-PEMT or anti-SHMT1 antibody overnight at 4 °C, Protein A/G agarose beads, immunoblotting; also cells overexpressing SHMT1 in the MPP+ model (PEMT in the washing solution) and cells pretreated with Isoorientin (10 µM) and MPP+ (500 µM)"}, "[2]": {"target": "T3, Serine Hydroxymethyltransferase 1 (SHMT1), endogenous mouse (mouse (endogenous in primary astrocytes and midbrain tissue)) (UniProt P50431)", "T3 sequence": "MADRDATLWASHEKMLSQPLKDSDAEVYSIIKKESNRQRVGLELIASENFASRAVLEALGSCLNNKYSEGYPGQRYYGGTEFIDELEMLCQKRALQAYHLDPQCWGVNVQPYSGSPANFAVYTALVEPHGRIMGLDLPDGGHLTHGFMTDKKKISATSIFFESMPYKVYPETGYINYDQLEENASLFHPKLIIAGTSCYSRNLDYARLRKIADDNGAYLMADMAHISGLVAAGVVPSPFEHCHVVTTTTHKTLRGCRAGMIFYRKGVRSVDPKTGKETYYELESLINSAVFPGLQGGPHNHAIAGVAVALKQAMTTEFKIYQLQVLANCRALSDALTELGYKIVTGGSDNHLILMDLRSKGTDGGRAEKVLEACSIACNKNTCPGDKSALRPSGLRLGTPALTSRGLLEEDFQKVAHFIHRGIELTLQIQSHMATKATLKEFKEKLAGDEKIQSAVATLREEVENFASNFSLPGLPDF", "experiment": "co-IP; midbrain tissue proteins of mice of the Isoorientin and MPTP/p groups, immunoprecipitated with anti-SHMT1 antibody, immunoblotting"}, "[3]": {"target": "T3, Serine Hydroxymethyltransferase 1 (SHMT1), endogenous mouse (mouse (endogenous in primary astrocytes and midbrain tissue))", "experiment": "proximity ligation; Duolink PLA in primary astrocytes pretreated with MPP+ (500 µM) or Isoorientin (10 µM); rabbit anti-SHMT1 and mouse anti-PEMT primary antibodies"}}, "note": "No constants are given. Whether binding was seen depends on the method and setting. In cells and extracts the contact can be indirect. Some entries that bind do so weakly or less than the wild type.", "data": [{"binder": "phosphatidylethanolamine N-methyltransferase (PEMT) (protein, UniProt Q61907 1-199) MSWLLGYMDPTEPSFVAAVITIVFNPLFWNVVARWEQRTRKLSRAFGSPHLACYSLGICILLLNILRSHCFTQAMMSQPKMEGLDNHTTYFLGLAFLGWGFVFVLSSFYALGFTGTFLGDYFGILKESRVTTFPFSVLDNPMYWGSTANYLGWALMHASPTGLLLTVLVAIVYVVALLYEEPFTAEIYRQKATRLHKRS", "values": [{"measurement": "binding", "setting": "SHMT1, overexpressed", "value": "binds"}, {"measurement": "binding", "setting": "[1]", "value": "binds"}]}, {"binder": "phosphatidylethanolamine N-methyltransferase (PEMT), endogenous mouse (protein, UniProt Q61907 1-199) MSWLLGYMDPTEPSFVAAVITIVFNPLFWNVVARWEQRTRKLSRAFGSPHLACYSLGICILLLNILRSHCFTQAMMSQPKMEGLDNHTTYFLGLAFLGWGFVFVLSSFYALGFTGTFLGDYFGILKESRVTTFPFSVLDNPMYWGSTANYLGWALMHASPTGLLLTVLVAIVYVVALLYEEPFTAEIYRQKATRLHKRS", "values": [{"measurement": "binding", "setting": "[2]", "value": "binds"}, {"measurement": "binding", "setting": "[3]", "value": "binds"}]}]}
